# Experimental data taken from the supplement of paper PMC6411743.
# ± gives the standard deviation of the averaged measurements. Only a part is listed here, and it is no random draw.
# What was measured:
# Assay in all cases: NP40-soluble protein abundance relative to vehicle (solubility fold change) (ratio); higher = more soluble protein in presence of AMP-PNP
# [1] = target: T1, UniProt Q9H6R7 and related entries
# T1 sequence (whole entry): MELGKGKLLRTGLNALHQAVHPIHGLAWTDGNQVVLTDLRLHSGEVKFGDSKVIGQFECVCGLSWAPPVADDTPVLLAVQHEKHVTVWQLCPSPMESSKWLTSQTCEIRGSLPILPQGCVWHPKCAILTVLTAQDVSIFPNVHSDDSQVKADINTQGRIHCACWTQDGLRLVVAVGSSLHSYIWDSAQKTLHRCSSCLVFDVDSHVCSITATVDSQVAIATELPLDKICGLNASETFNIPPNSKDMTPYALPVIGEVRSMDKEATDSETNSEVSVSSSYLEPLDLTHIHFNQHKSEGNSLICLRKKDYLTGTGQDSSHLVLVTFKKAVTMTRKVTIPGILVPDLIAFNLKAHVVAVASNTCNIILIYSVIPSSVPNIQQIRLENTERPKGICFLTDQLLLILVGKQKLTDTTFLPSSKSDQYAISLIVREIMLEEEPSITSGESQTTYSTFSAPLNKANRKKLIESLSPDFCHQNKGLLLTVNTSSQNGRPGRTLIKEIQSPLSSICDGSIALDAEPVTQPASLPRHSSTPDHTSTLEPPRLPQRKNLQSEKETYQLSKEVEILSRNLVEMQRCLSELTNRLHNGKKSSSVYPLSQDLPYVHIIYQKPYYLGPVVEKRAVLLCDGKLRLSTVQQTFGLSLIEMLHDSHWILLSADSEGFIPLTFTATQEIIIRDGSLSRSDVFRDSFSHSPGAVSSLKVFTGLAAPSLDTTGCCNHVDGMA
# Procedure, shortened: (§1)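 Crude Jurkat lysate, prepared by Dounce homogenisation, was exposed to eight concentrations from 0.1 to 10 mM for 10 min at room temperature and then 3 min at 37 °C. Solubilisation used 0.8% NP40 with benzonase for 60 min at 4 °C, followed by ultracentrifugation and TMT labelling of the supernatant for LC-MS/MS. After vsn normalisation of intensities, each value is the fold change against the detergent-processed vehicle within each replicate, across three independent experiments.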
# UniProt Q9H993 = target: T2, UniProt Q9H993
# T2 sequence (whole entry): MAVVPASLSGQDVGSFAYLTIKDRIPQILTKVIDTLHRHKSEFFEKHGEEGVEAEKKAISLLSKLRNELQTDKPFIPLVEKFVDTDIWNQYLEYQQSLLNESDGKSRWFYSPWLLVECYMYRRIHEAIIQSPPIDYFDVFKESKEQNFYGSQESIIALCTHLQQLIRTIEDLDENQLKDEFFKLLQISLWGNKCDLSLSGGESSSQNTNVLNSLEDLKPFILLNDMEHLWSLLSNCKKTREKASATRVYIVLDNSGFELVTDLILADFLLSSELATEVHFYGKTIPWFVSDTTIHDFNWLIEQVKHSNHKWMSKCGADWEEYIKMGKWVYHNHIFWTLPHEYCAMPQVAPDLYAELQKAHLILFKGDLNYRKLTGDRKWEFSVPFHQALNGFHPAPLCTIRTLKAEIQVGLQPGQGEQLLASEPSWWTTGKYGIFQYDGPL
# Procedure, shortened: as §1
# [2] = target: T3, UniProt Q9H9J4 and related entries
# T3 sequence (whole entry): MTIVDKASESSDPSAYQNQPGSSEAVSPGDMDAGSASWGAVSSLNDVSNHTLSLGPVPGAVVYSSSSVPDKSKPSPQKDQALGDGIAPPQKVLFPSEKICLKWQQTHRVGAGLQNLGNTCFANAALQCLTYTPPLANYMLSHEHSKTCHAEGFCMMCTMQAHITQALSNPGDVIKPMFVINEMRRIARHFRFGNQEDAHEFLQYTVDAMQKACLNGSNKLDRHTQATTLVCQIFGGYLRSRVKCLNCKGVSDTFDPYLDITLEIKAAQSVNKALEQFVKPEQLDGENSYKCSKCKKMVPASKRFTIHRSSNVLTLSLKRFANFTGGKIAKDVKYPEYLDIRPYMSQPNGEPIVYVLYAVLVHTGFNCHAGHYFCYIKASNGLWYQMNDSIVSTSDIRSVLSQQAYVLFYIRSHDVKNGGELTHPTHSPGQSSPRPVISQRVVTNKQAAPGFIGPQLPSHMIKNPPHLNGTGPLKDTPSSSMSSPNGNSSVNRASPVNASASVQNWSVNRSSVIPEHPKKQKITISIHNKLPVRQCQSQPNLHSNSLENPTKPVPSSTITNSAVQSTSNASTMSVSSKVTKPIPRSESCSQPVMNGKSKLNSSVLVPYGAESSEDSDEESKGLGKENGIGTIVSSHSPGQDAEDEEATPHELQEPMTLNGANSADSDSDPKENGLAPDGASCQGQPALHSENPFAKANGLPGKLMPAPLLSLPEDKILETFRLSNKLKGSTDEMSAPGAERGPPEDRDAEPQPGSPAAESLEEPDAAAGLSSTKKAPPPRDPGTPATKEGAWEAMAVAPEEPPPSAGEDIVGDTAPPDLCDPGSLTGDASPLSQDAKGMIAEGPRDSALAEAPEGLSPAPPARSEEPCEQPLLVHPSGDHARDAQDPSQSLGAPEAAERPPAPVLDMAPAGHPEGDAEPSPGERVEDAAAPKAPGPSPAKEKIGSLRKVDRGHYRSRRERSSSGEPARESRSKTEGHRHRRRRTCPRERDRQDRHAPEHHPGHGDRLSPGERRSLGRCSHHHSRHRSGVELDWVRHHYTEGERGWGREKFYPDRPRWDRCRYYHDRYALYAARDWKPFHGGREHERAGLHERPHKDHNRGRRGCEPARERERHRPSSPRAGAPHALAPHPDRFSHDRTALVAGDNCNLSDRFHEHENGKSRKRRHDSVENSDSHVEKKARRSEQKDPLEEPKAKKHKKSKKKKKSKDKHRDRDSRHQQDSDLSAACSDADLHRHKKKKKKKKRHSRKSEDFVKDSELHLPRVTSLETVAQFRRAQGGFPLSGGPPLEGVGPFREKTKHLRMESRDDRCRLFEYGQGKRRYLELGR
# Procedure, shortened: as §1
# [3] = target: T4, UniProt Q9NPI1 and related entries
# T4 sequence (whole entry): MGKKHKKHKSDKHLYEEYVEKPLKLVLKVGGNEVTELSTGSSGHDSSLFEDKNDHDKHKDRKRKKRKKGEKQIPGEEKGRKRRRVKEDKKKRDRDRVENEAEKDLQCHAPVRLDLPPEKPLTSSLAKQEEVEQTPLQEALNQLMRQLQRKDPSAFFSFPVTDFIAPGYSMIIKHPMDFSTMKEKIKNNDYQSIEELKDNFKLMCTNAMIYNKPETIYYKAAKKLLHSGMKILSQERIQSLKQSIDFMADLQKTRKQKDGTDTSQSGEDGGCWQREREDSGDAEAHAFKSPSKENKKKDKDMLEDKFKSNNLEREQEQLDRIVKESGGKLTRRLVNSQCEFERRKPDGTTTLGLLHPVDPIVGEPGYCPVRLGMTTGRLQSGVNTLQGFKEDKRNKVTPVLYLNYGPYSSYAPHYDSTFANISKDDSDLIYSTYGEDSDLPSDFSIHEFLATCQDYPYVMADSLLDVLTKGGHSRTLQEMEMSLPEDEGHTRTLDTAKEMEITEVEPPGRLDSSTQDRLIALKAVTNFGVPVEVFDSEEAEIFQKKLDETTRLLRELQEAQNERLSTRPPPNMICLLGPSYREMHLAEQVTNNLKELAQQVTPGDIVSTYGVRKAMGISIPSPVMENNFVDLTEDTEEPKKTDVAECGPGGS
# Procedure, shortened: as §1
# UniProt Q9NPJ3 = target: T5, UniProt Q9NPJ3
# T5 sequence (whole entry): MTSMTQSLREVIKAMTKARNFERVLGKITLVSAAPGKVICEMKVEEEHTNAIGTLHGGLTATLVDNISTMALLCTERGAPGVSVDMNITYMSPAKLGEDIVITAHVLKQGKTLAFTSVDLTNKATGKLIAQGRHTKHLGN
# Procedure, shortened: as §1
compound,measurement,setting,value
Nc1ncnc2c1ncn2[C@@H]1O[C@H](COP(=O)(O)OP(=O)(O)NP(=O)(O)O)[C@@H](O)[C@H]1O [adenylyl imidodiphosphate],NP40-soluble protein abundance,[1]; concentration: 1mM,0.944 ± 0.05
same,NP40-soluble protein abundance,[1]; concentration: 2mM,0.932 ± 0.028
same,NP40-soluble protein abundance,[1]; concentration: 4mM,0.918 ± 0.032
same,NP40-soluble protein abundance,[1]; concentration: 6mM,0.888 ± 0.085
same,NP40-soluble protein abundance,[1]; concentration: 8mM,0.874 ± 0.099
same,NP40-soluble protein abundance,[1]; concentration: 10mM,0.852 ± 0.085
same,NP40-soluble protein abundance,UniProt Q9H993; concentration: 1mM,1.01 ± 0.055
same,NP40-soluble protein abundance,UniProt Q9H993; concentration: 2mM,0.967 ± 0.012
same,NP40-soluble protein abundance,UniProt Q9H993; concentration: 4mM,0.982 ± 0.049
same,NP40-soluble protein abundance,UniProt Q9H993; concentration: 6mM,1.021 ± 0.0015
same,NP40-soluble protein abundance,UniProt Q9H993; concentration: 8mM,1.04 ± 0.033
same,NP40-soluble protein abundance,UniProt Q9H993; concentration: 10mM,1.02 ± 0.027
same,NP40-soluble protein abundance,[2]; concentration: 1mM,1.02 ± 0.026
same,NP40-soluble protein abundance,[2]; concentration: 2mM,1.03 ± 0.035
same,NP40-soluble protein abundance,[2]; concentration: 4mM,1.01 ± 0.035
same,NP40-soluble protein abundance,[2]; concentration: 6mM,0.993 ± 0.011
same,NP40-soluble protein abundance,[2]; concentration: 8mM,1.03 ± 0.03
same,NP40-soluble protein abundance,[2]; concentration: 10mM,1.04 ± 0.04
same,NP40-soluble protein abundance,[3]; concentration: 1mM,1.07 ± 0.036
same,NP40-soluble protein abundance,[3]; concentration: 2mM,1.13 ± 0.049
same,NP40-soluble protein abundance,[3]; concentration: 4mM,1.11 ± 0.06
same,NP40-soluble protein abundance,[3]; concentration: 6mM,1.16 ± 0.094
same,NP40-soluble protein abundance,[3]; concentration: 8mM,1.15 ± 0.037
same,NP40-soluble protein abundance,[3]; concentration: 10mM,1.22 ± 0.12
same,NP40-soluble protein abundance,UniProt Q9NPJ3; concentration: 1mM,0.947 ± 0.014
same,NP40-soluble protein abundance,UniProt Q9NPJ3; concentration: 2mM,0.9081 ± 0.0059
same,NP40-soluble protein abundance,UniProt Q9NPJ3; concentration: 4mM,0.9 ± 0.028
same,NP40-soluble protein abundance,UniProt Q9NPJ3; concentration: 6mM,0.974 ± 0.062
same,NP40-soluble protein abundance,UniProt Q9NPJ3; concentration: 8mM,0.976 ± 0.032
same,NP40-soluble protein abundance,UniProt Q9NPJ3; concentration: 10mM,0.948 ± 0.076

# Reprinted from above (two entries):
compound,measurement,setting,value
Nc1ncnc2c1ncn2[C@@H]1O[C@H](COP(=O)(O)OP(=O)(O)NP(=O)(O)O)[C@@H](O)[C@H]1O [adenylyl imidodiphosphate],NP40-soluble protein abundance,UniProt Q9H993; concentration: 1mM,1.01 ± 0.055
same,NP40-soluble protein abundance,UniProt Q9H993; concentration: 2mM,0.967 ± 0.012
